Binding data for 1 substance are collected here from paper PMC11995063.

Amino acid sequences for entries named in this document (tags omitted).
UniProt Q7Z6E9: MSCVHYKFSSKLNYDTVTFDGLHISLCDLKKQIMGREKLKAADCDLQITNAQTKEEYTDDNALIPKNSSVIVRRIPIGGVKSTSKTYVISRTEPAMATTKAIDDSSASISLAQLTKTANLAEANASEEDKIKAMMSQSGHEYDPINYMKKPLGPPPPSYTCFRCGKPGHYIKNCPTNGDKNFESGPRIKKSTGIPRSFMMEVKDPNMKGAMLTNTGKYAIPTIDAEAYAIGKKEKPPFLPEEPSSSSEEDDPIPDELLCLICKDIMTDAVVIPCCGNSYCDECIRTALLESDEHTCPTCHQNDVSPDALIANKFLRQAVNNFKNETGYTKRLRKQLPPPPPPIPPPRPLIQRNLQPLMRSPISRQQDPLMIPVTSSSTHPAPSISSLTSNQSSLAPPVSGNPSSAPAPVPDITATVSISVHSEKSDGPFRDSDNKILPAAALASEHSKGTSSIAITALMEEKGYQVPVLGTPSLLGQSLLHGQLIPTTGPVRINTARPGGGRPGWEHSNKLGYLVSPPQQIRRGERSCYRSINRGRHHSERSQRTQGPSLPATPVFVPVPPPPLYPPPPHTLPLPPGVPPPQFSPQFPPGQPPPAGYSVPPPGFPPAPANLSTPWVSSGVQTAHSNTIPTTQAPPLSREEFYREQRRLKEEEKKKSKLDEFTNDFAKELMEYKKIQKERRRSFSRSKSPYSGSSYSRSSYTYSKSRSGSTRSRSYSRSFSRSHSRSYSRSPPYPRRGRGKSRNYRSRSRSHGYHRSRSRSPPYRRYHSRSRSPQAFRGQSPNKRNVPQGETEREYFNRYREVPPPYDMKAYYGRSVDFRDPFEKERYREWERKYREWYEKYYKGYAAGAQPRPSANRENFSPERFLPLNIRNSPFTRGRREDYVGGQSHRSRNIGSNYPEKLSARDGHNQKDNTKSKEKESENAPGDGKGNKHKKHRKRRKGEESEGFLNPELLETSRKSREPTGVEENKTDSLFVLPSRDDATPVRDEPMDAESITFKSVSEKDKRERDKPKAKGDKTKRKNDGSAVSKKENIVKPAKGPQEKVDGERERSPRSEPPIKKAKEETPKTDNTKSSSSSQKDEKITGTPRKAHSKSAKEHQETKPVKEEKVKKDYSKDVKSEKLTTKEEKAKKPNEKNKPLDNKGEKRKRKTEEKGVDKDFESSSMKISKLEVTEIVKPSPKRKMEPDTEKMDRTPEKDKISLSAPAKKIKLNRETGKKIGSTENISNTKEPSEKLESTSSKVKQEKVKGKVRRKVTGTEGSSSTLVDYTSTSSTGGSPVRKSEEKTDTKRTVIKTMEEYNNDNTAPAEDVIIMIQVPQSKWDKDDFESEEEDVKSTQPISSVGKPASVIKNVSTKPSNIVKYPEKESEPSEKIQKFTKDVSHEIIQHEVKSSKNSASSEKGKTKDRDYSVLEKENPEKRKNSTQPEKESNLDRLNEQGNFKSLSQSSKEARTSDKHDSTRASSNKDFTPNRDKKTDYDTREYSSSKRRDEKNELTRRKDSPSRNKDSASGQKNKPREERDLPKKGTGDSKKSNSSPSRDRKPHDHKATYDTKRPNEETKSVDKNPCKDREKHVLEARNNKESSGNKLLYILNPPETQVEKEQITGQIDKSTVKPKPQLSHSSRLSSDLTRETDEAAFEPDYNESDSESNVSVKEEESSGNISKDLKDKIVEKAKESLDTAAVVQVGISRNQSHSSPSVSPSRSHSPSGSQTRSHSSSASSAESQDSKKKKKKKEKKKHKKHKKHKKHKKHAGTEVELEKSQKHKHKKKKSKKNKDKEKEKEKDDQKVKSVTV

Results are given in words; binding and its absence hold for the method and conditions named. Binding seen in cells or lysates may run through a third protein. Some results given as binding are weak or reduced against the parent protein; the word gives no strength.

The test concerns the target T1, junction plakoglobin (UniProt P14923).
T1 sequence: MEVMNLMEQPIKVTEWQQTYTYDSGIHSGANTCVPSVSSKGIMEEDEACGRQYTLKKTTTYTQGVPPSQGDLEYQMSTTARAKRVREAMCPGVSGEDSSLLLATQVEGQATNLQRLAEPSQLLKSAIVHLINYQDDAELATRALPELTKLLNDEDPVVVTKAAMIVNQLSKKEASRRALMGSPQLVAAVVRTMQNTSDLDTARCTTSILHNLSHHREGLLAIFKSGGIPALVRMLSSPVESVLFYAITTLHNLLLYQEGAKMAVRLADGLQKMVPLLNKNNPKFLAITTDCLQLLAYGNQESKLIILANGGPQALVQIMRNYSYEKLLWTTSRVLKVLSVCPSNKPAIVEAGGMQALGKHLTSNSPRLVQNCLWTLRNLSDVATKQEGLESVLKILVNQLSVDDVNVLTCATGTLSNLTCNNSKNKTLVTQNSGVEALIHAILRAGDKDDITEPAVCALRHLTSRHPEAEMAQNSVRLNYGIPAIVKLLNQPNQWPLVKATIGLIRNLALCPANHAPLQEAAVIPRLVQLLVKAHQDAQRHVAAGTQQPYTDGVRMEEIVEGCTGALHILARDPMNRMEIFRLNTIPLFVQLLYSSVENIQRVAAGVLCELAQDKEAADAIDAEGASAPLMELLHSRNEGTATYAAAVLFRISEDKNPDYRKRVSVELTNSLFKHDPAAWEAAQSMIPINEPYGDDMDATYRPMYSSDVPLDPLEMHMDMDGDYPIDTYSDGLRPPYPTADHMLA
The test is described as follows: co-IP; cells not given; also done after knockdown of circSSU72 (binding reduced).

In the case of “retinoblastoma-binding protein 6 (from UniProt Q7Z6E9 1-1792)”, the binding result was “binds”.
